In PubChem BioAssay AID504834 (National Center for Advancing Translational Sciences (NCATS), 2011):
The campaign covered roughly 320,000 compounds. About 22,000 (6.9%) were called active. The shares of active, inactive and inconclusive entries below differ from those in the screen. Calls come from the whole dose curve; as a rule, active = well fitted inhibition curve with a large enough effect; inconclusive = small, poorly fitted or top-dose-only effect, or another doubt; inactive = no such curve, though single readings can be large or run the other way. Potencies of inconclusive entries are doubtful fits and often do not repeat.

assay: Primary qHTS for delayed death inhibitors of the malarial parasite plastid, 96 hour incubation; conditions: P. falciparum luciferase reporter growth; series mostly up to 28.7 µM; activity change, negative = inhibition: at the top concentration
How it was run: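 Luminescence readout: decreased luciferase signal marks inhibited growth of reporter-expressing P. falciparum in infected red cells (2% hematocrit, 0.05% parasitemia final), exposed to compound two generations (96 h, 37 C, 5% CO2).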
% is set by controls: 0 for no effect and ±100 for the full control effect; potency is the fitted concentration of half-maximal effect.

Question: Which Potency does the source give for CCCN(CC(=O)Nc1ccccc1OC)C(=O)c1cc(-c2cccs2)nn1-c1ccccc1 here?
Answer: inconclusive: 11.7 µM [inhibitor, single point]

Question: With Cc1cccc(C)c1OC1(c2ccccc2)OC(=O)c2ccccc21 (centres undefined) as the compound, how does the Potency read?
Answer: inconclusive: 18.5 µM [inhibitor, partial curve, poor fit]

Question: Which Potency does the source give for COC(=O)c1c(C)[nH]c(C)c1-c1ccc(C)cc1 here?
Answer: inconclusive: 16.5 µM [inhibitor, partial curve, poor fit]

Question: Which “activity change, negative = inhibition” value does the source give for COc1ccc(/C(C)=N/NC(=O)CNC(=O)C(c2ccccc2)c2ccccc2)c(OC)c1 here?
Answer: inactive: -17.5%

Question: Which Potency does the source give for CCCC(NCC(O)COc1ccc(-c2ccccc2)cc1)c1ccccc1 (centres undefined) here?
Answer: inconclusive: 4.65 µM [inhibitor, partial curve, poor fit]

Question: Which Potency does the source give for Cc1ccccc1S(=O)(=O)Cc1ccc(C(=O)NCc2cccnc2)o1 here?
Answer: active: 9.28 µM

Question: Which Potency does the source give for O=C1CCCN1c1ccc(S(=O)(=O)Oc2cccc(Cl)c2)cc1[N+](=O)[O-] here?
Answer: inconclusive: 3.29 µM [inhibitor, full curve]

Question: For COc1ccc(C(=O)CC(=O)C(=O)Nc2ccc(Cl)cc2)cc1, which “activity change, negative = inhibition” value is on record?
Answer: inactive: 25.5%

Question: For COc1cc(C(O)P(=O)(OCC(C)C)c2ccc(N(C)C)cc2)cc(OC)c1OC (centres undefined), which “activity change, negative = inhibition” value is on record?
Answer: inactive: -7.94%

Question: For COc1ccc(CN(C)C(=O)CNC(=O)CNC(=O)c2ccc(Cl)cc2Cl)cc1F, which Potency is on record?
Answer: inconclusive: 18.5 µM [inhibitor, single point]

Question: For Cc1ccc(C2C(C(=O)c3cccs3)=C(O)C(=O)N2c2cccc(C)n2)cc1 (centres undefined), which “activity change, negative = inhibition” value is on record?
Answer: inactive: 34%

Question: For Cc1cccc(NC(=O)NCc2ccc3c(c2)OCO3)c1, which Potency is on record?
Answer: inconclusive: 9.28 µM [inhibitor, single point]

Question: Which Potency does the source give for O=C(c1c(F)cccc1Cl)N1CCN(S(=O)(=O)c2ccc3c(c2)OCCCO3)CC1 here?
Answer: inconclusive: 18.5 µM [inhibitor, partial curve, poor fit]

Question: For COc1ccccc1NC(=O)CSC1=NC(=O)C(Cc2ccccc2)C(=O)N1 (centres undefined), which Potency is on record?
Answer: inconclusive: 9.28 µM [inhibitor, partial curve]

Question: For COc1cccc(COC(=O)C2CC(=O)N(Cc3ccc(C)cc3)C2)c1OC (centres undefined), which “activity change, negative = inhibition” value is on record?
Answer: inactive: -1.11%

Question: With O=C(C1=NN[C@@H]2C(=O)N(Cc3ccccc3)C(=O)[C@H]12)c1ccc([N+](=O)[O-])cc1 as the compound, how does the Potency read?
Answer: inconclusive: 0.0033 µM [inhibitor, full curve, poor fit]

Question: For O=C(Nc1ccccc1F)C(=Cc1sc(N2CCOCC2)nc1-c1ccccc1)C(=O)Nc1ccccc1F, which Potency is on record?
Answer: inconclusive: 2.62 µM [inhibitor, full curve, poor fit]

Question: Which activity change, negative = inhibition does the source give for O=C(Nc1ccc(Cl)c(S(=O)(=O)N2CCOCC2)c1)c1cn2ccccc2n1 here?
Answer: inactive: -43.2% [at 5.75 µM]

Question: Which “activity change, negative = inhibition” value does the source give for C=CCOc1cccc(C(=O)N2CCCC(CCC(=O)NCc3ccccc3F)C2)c1 (centres undefined) here?
Answer: inactive: 20.5%

Question: For COc1ccc(/C=N/NC(=O)c2cccnc2)cc1CN1CCc2ccccc2C1, which Potency is on record?
Answer: active: 10.4 µM

Question: For Cc1nc(CC(=O)Nc2nc(-c3ccccc3)cs2)cs1, which Potency is on record?
Answer: inconclusive: 18.5 µM [inhibitor, single point]

Question: For Cc1cc(N2CCOCC2)ccc1/C=C1\NC(=O)N(CC(=O)Nc2ccc(F)cc2)C1=O, which Potency is on record?
Answer: active: 2.94 µM

Question: With CC(=O)Nc1ccc(NC(=O)c2nccnc2C(=O)O)cn1 as the compound, how does the “activity change, negative = inhibition” value read?
Answer: inactive: 20.5%

Question: For Cc1cccc(OCC(=O)NN2C(=O)C3C4C=CC(O4)C3C2=O)c1 (centres undefined), which “activity change, negative = inhibition” value is on record?
Answer: inactive: -8.79%

Question: With O=c1c(N2CCOCC2)nsnc1N1CCOCC1 as the compound, how does the “activity change, negative = inhibition” value read?
Answer: inactive: -27%

Question: With Cc1ccc([N+](=O)[O-])cc1S(=O)(=O)N1CCN(C)CC1 as the compound, how does the “activity change, negative = inhibition” value read?
Answer: inactive: -2.92%

Question: With COc1ccc(-c2cn(Cc3ccc(C(=O)c4ccccc4)cc3)nn2)cc1 as the compound, how does the “activity change, negative = inhibition” value read?
Answer: inactive: 84.8%

Question: Which Potency does the source give for O=C(N/N=C/c1cc([N+](=O)[O-])cc(Br)c1O)C12CC3CCC(CC(C3)C1)C2 here?
Answer: inconclusive: 20.8 µM [inhibitor, partial curve, poor fit]

Question: Which “activity change, negative = inhibition” value does the source give for Cc1cccc(-c2nnc(SCC(=O)Nc3nc4c(s3)CCCC4)n2C)c1 here?
Answer: inactive: 16.5%

Question: With COc1cccc(/C=N/n2c(SC)nnc2-c2ccccc2)c1O as the compound, how does the Potency read?
Answer: inconclusive: 5.22 µM [inhibitor, partial curve, poor fit]

Question: Which “activity change, negative = inhibition” value does the source give for CCCOC(=O)c1ccc(Oc2c(-c3ccc(OCC)cc3O)n[nH]c2C)cc1 here?
Answer: inactive: -7.54%

Question: For Cc1ccc(/C=C/C(=O)c2c(C)cc(C)[nH]c2=O)cc1, which Potency is on record?
Answer: inconclusive: 8.28 µM [inhibitor, partial curve, poor fit]

Question: For Cc1cccc(OCc2nnc(SCC(=O)N3CCc4ccccc43)n2C)c1, which Potency is on record?
Answer: inconclusive: 18.5 µM [inhibitor, single point]

Question: For O=C(Nc1ccc(F)c(F)c1)C1CCCN(S(=O)(=O)c2cnc[nH]2)C1 (centres undefined), which Potency is on record?
Answer: inconclusive: 18.5 µM [inhibitor, single point]

Question: Which Potency does the source give for Cn1cc(CN2CCc3c([nH]c4ccccc34)C2C(C)(C)C)cn1 (centres undefined) here?
Answer: inconclusive: 18.5 µM [inhibitor, single point]

Question: For CCN(Cc1ccccc1)S(=O)(=O)c1c[nH]c(C(=O)OC)c1, which “activity change, negative = inhibition” value is on record?
Answer: inactive: 1.12%

Question: With COc1cc(CO)ccc1OCC(=O)N1CCc2ccccc21 as the compound, how does the Potency read?
Answer: inconclusive: 11.7 µM [inhibitor, single point]

Question: With CC(C)=CCN1CCN(Cc2cccc3nonc23)CC1CCO (centres undefined) as the compound, how does the Potency read?
Answer: active: 2.08 µM

Question: For O=C(c1ccccc1F)N1CCN(Cc2cccc(Cl)c2)CC1, which Potency is on record?
Answer: inconclusive: 18.5 µM [inhibitor, single point]

Question: For CN(C)C1(CNCC(O)c2ccccc2)CCCCC1 (centres undefined), which “activity change, negative = inhibition” value is on record?
Answer: inactive: -0.651%

Question: With Cc1nnc(SCC(=O)Nc2cc(S(=O)(=O)N3CCOCC3)ccc2C)s1 as the compound, how does the “activity change, negative = inhibition” value read?
Answer: inactive: 12%

Question: For CC(=O)CCc1oc2ccc([N+](=O)[O-])cc2c1-c1ccc(C)o1, which “activity change, negative = inhibition” value is on record?
Answer: inactive: -25.4%

Question: For O=C(Nc1ccccc1C(=O)NCC1CCCO1)c1ccc(Cl)cc1 (centres undefined), which Potency is on record?
Answer: inconclusive: 13.1 µM [inhibitor, single point]

Question: For C#CCOCCOCCOCCNc1nc(N2CCN(C(=O)CCCCCCCCCCNC(=O)[C@H]([C@@H](C)CC)n3cc(CCCCN=C(N)N)nn3)CC2)nc(N2CCN(C(=O)CCCCCCCCCCNC(=O)[C@H](CO)n3cc(CCCCCN)nn3)CC2)n1, which Potency is on record?
Answer: active: 5.22 µM

Question: Which Potency does the source give for CCOC(=O)C(C)N1N=C(/C=C/c2ccc(OC)cc2)CCC1=O (centres undefined) here?
Answer: inconclusive: 0.37 µM [inhibitor, full curve, poor fit]

Question: For Cc1[nH]c(C)c(S(=O)(=O)N2CCN(c3ccccc3)CC2)c1C(=O)N1CCCCC1, which Potency is on record?
Answer: inconclusive: 2.94 µM [inhibitor, full curve]

Question: With Cc1cc(/C=N/NC(N)=S)c(C)n1-c1ccc(Cl)cc1 as the compound, how does the “activity change, negative = inhibition” value read?
Answer: inactive: 4.22%

Question: With Cc1ccc(C(=O)CC(=O)c2ccccc2)cc1 as the compound, how does the Potency read?
Answer: active: 3.7 µM

Question: Which Potency does the source give for COc1ccc2cc[nH]c2c1 here?
Answer: inconclusive: 0.738 µM [inhibitor, full curve, poor fit]

Question: For COc1cc(C(=O)OCC(=O)Nc2c(F)c(F)c(F)c(F)c2F)cc(OC)c1OC, which Potency is on record?
Answer: inconclusive: 4.65 µM [inhibitor, single point]

Question: With COc1ccc(OC)c(NC(=O)CN(c2ccc(C)cc2)S(=O)(=O)c2c(C)n[nH]c2C)c1 as the compound, how does the Potency read?
Answer: inconclusive: 9.28 µM [inhibitor, partial curve]

Question: Which Potency does the source give for C=C(C)Cn1c(N2CCC(Cc3ccccc3)CC2)nc2c1c(=O)[nH]c(=O)n2C here?
Answer: inconclusive: 0.928 µM [inhibitor, full curve]

Question: With CC(C)COc1ccc(Br)cc1CNC(C)(C)C as the compound, how does the Potency read?
Answer: inconclusive: 4.15 µM [inhibitor, full curve, poor fit]

Question: With CCOc1ccc(NC(=O)CN(C)C(=O)Cc2c(C)nc3ccccc3c2C)cc1OCC as the compound, how does the Potency read?
Answer: inconclusive: 9.28 µM [inhibitor, partial curve, poor fit]

Question: For Cc1ccccc1C(=O)N/N=C/c1ccccn1, which Potency is on record?
Answer: inconclusive: 18.5 µM [inhibitor, single point]

Question: With CCOc1ncccc1C(=O)N(CC)CC(=O)NCc1ccc(Cl)cc1 as the compound, how does the “activity change, negative = inhibition” value read?
Answer: inactive: -6.98%

Question: With COc1cccc(CSc2nc(N)cc(N)n2)c1 as the compound, how does the “activity change, negative = inhibition” value read?
Answer: inactive: 0%

Question: For CCN1CCN(CC(=O)Nc2cc(C(F)(F)F)ccc2OCCOC)CC1, which Potency is on record?
Answer: inconclusive: 0.465 µM [inhibitor, full curve, poor fit]

Question: With CCc1ccc(-c2nnn(CC(=O)N(C3CCCC3)C3CCS(=O)(=O)C3)n2)cc1 (centres undefined) as the compound, how does the Potency read?
Answer: inconclusive: 10.4 µM [inhibitor, single point]

Question: With COc1ccc(S(=O)(=O)c2ccc(OCC3CO3)cc2)cc1 (centres undefined) as the compound, how does the Potency read?
Answer: inconclusive: 10.4 µM [inhibitor, single point]

Question: For CSCCC(NC(=O)c1ccco1)C(=O)N1CCN(C(c2ccccc2)c2ccccc2)CC1 (centres undefined), which Potency is on record?
Answer: active: 2.08 µM

Question: Which Potency does the source give for COc1cc(C2C=C(C34CC5CC(CC(C5)C3)C4)NC(=S)N2)cc(OC)c1OC (centres undefined) here?
Answer: active: 1.04 µM

Question: Which Potency does the source give for CCc1nnc(NC(=O)C2Cc3ccccc3C(=O)O2)s1 (centres undefined) here?
Answer: inconclusive: 18.5 µM [inhibitor, single point]

Question: For COc1ccc(OC)c(NC(=O)c2cccnc2Sc2cc(C)ccc2C)c1, which Potency is on record?
Answer: inconclusive: 18.5 µM [inhibitor, single point]

Question: For O=C(Nc1ccc(-c2csc(Nc3cccc(C(F)(F)F)c3)n2)cc1)c1cccc(C(F)(F)F)c1, which Potency is on record?
Answer: active: 8.28 µM

Question: Which Potency does the source give for C=C1CCC[C@]2(C)C[C@H]3OC(=O)C(CNCC(C)C)[C@H]3CC12 (some centres undefined) here?
Answer: inconclusive: 1.04 µM [inhibitor, partial curve, poor fit]

Question: Which Potency does the source give for Cn1c(=O)[nH]c(=O)c2c1nc(SCCO)n2Cc1ccccc1Cl here?
Answer: inconclusive: 2.08 µM [inhibitor, single point]

Question: Which Potency does the source give for Cn1cc(C(=O)NS(=O)(=O)Nc2ccc(Br)cc2)c2ccccc21 here?
Answer: inconclusive: 18.5 µM [inhibitor, single point]

Question: Which Potency does the source give for Cc1cnc(=O)[nH]c1SCc1ccc([N+](=O)[O-])cc1 here?
Answer: inconclusive: 13.1 µM [inhibitor, single point]
